Patent US20170298437A1, “METHODS AND USES RELATED TO RHABDOID TUMORS” (The Hospital For Sick Children, priority 2016, published 2017)
“Also recorded” adds a separate entry of the source. For part of these data: For at least one compound, name, drawing or mass did not settle the structure. Some of these results come from one statement about several compounds together.

How the values were obtained:
Format in all cases: cell-based, human
group 1 ATRT cell lines = experiment: MTS cell viability assay on group 1 ATRT cell lines; settings: for reduction in cell viability: all four group 1 cell lines (CHLA266, CHLA04, 02, 05), 3 and 7 days
Description: (§1) ATRT cell line CHLA02 (ATCC, Cat #CRL-3020), CHLA04 (ATCC, Cat #CRL-3036) were cultured according to the manufacturer's protocol. CHLA05 and CHLA06 cells, which were derived from primary ATRTs by Dr. Anat Erdreich-Epstein from the Children's Hospital of Los Angeles, were cultured in DMEM/F12 supplemented with 20 ng/mL FGF, 20 ng/mL EGF, and 1× B27 supplement. SH cells were obtained from Dr. Shih Hwa Choiu at Taipei Veterans General Hospital and was cultured as previously described (Kao et al., 2005). BT12 and BT16, which were kind gifts from Dr. Peter Houghton at Nationalwide Children's Hospital, were cultured in RPMI-1640 supplemented with 10% FBS. ATRT 78C cells was established from a corresponding primary ATRT (T13; diagnosed at The Hospital for Sick Children) and cultured in Neurobasal medium supplemented with 75 ng/mL BSA, 10 ng/mL FGF1, 10 ng/mL EGF, 2 ug/mL Heparin, 1× B27 and 1× N2 supplements. CHLA266 was grown in IMEM media with 10% FBS and 1× ITS. G401 (ATCC, Cat #CRL-1441) was grown in McCoy's 5A media with 10% FBS.
(§2) To assess effects of NOTCH and BMP signaling on ATRT cell phenotypes, cells were treated with N-[N-(3,5-Difluorophenacetyl)-L-alanyl]-S-phenylglycine t-butyl ester (DAPT; EMD Chemicals, Germany, Cat #565770) or Dorsomorphin (DM; Sigma-Aldrich, USA, Cat #P5499) and analyzed using MTS assays for cell viability. […] For epigenomic drug screening experiments, conditions were set up identically with the exception of absorbance readings being taken at 3 and 7 days post-treatment. Cell viability was determined based on mean cell absorbance at 492 nm.

ATRT cell lines = experiment: MTS cell viability screen of epigenetic probes on the whole ATRT cell line panel (4 group 1 and 4 group 2); settings: varying doses of epigenetic probes/drugs, readings at 3 and 7 days, relative to DMSO
Description: Recent studies have reported promising therapeutic agents targeting a number of epigenetic and signaling pathways in ATRTs (Ginn and Gajjar, 2012), however the relevance of these agents to ATRT sub-types is unknown as these prior studies have examined a very limited number of cell lines. To identify additional ATRT sub-group specific pathways/targets, the effects of 12 small molecule inhibitors/chemical probes targeting epigenetic pathways on growth of 4 group 1 (CHLA266, CHLA04, 02, 05) and 4 group 2 ATRT (SH, CHLA06, BT16 and BT12) cell lines (FIG. 18A) were tested.
as §1, with “G401 (ATCC, Cat #CRL-1441) was grown in McCoy's 5A media with 10% FBS.” left out
as §2

group 2 ATRT cell lines [1] = experiment: MTS cell viability assay on group 2 ATRT cell lines
Description: ATRT cell line CHLA02 (ATCC, Cat #CRL-3020), CHLA04 (ATCC, Cat #CRL-3036) were cultured according to the manufacturer's protocol. CHLA05 and CHLA06 cells, which were derived from primary ATRTs by Dr. Anat Erdreich-Epstein from the Children's Hospital of Los Angeles, were cultured in DMEM/F12 supplemented with 20 ng/mL FGF, 20 ng/mL EGF, and 1× B27 supplement. SH cells were obtained from Dr. Shih Hwa Choiu at Taipei Veterans General Hospital and was cultured as previously described (Kao et al., 2005). BT12 and BT16, which were kind gifts from Dr. Peter Houghton at Nationalwide Children's Hospital, were cultured in RPMI-1640 supplemented with 10% FBS. […]
as §2

[2] = tested on: G401, a cell line derived from a renal rhabdoid tumor; experiment: Growth of G401 renal rhabdoid tumor cell line; settings: data not shown
Description: as §1

phospho-PDGFRβ = experiment: Western blot analyses of phospho-PDGFRβ in group 2 ATRT cell lines; settings: 50 nM, 3, 5 and 7 days post-treatment, vs DMSO
BMP signaling = experiment: Western blot and qRT-PCR analyses of BMP signaling in group 2 ATRT cell lines; settings: group 2 cell lines SH, CHLA06, BT16
group 2 ATRT cell lines [3] = experiment: Transwell cell migration assay; settings: group 2 ATRT cells; Transwell Boyden chamber, 18 hours
[4] = tested on: group 2 (SH) ATRT cell line; experiment: TUNEL assay in group 2 ATRT cell line

COc1cc2c(NC3CCN(C(C)C)CC3)nc(C3CCCCC3)nc2cc1OCCCN1CCCC1 [UNC0638]
reduction in cell viability (group 1 ATRT cell lines; varying doses, MTS): > 30% | reduction in cell viability (ATRT cell lines): > 30%

Cc1nc(Nc2ncc(C(=O)Nc3c(C)cccc3Cl)s2)cc(N2CCN(CCO)CC2)n1 [Dasatinib]
growth / sensitivity to tyrosine kinase inhibitor (group 1 ATRT cell lines; group 1 ATRT cell lines, MTS, 5 days): resistant | growth / sensitivity to tyrosine kinase inhibitor (group 2 ATRT cell lines [1]; group 2 ATRT cell lines, MTS, 5 days): robustly diminished growth; also recorded: sensitive | growth of G401 [2]: robustly inhibit the growth | expression of phospho-PDGFRβ (phospho-PDGFRβ): robustly diminished expression of phospho-PDGFRβ

CCCc1cc(C)[nH]c(=O)c1CNC(=O)c1cc(-c2ccc(N3CCN(C(C)C)CC3)nc2)cc2c1cnn2C(C)C [UNC1999]
reduction in cell viability (group 1 ATRT cell lines; varying doses, MTS): > 30% | reduction in cell viability (ATRT cell lines): > 30%

c1cc(-c2cnn3cc(-c4ccc(OCCN5CCCCC5)cc4)cnc23)ccn1 [DM]
expression of phospho-SMAD1/5 (BMP signaling; Western blot, increasing doses): dose dependent decrease in expression of phospho-SMAD1/5; also recorded: decreased pSMAD1/5 expression | BMP target genes SOST and BAMBI (BMP signaling; qRT-PCR, four days post-treatment): downregulation | cell line growth (cell viability, MTS) (group 1 ATRT cell lines; group 1 (78C, CHLA05, CHLA02), DAPT or DM, varying doses, days 1-5, relative to DMSO): no significant effects on cell growth | cell invasion and migration (group 2 ATRT cell lines [3]): robustly diminished group 2 ATRT cell invasion and migration in a dose dependent manner | cell line growth (cell viability, MTS) (group 2 ATRT cell lines [1]; group 2A/B (SH, CHLA06, BT16), DAPT or DM, varying doses, days 1-5, relative to DMSO): inhibited group 1 and 2 ATRT cell line growth in a dose dependent manner | cell death / apoptosis (TUNEL) [4]: increased cell death; also recorded: induced apopotosis

O=C(/C=C/c1ccc(CN(CCO)CCc2c[nH]c3ccccc23)cc1)NO [LAQ824]
reduction in cell viability (ATRT cell lines): > 30%
